Source: the supplement of paper PMC6411743
± gives the standard deviation of the averaged measurements. The entries are a selection whose mix differs from that of the whole data set.

Amino acid sequences for entries named in this document (tags omitted). A change or cut given only in a name is not applied to a line headed by its entry.
UniProt O75586: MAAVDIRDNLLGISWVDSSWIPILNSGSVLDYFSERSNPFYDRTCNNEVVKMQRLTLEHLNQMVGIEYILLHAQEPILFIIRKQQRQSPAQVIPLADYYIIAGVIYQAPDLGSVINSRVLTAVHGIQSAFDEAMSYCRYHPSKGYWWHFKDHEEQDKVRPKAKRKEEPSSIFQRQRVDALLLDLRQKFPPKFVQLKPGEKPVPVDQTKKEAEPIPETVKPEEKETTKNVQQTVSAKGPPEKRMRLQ
UniProt P42330: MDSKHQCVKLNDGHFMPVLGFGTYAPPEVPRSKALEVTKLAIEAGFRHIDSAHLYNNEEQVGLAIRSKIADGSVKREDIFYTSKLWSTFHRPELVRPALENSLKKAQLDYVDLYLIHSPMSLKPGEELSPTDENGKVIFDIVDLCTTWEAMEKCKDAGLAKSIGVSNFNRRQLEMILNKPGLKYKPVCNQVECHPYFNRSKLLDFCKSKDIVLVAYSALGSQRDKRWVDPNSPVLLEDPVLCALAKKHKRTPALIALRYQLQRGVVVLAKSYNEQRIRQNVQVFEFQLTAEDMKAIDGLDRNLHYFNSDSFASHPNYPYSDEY
UniProt Q92544: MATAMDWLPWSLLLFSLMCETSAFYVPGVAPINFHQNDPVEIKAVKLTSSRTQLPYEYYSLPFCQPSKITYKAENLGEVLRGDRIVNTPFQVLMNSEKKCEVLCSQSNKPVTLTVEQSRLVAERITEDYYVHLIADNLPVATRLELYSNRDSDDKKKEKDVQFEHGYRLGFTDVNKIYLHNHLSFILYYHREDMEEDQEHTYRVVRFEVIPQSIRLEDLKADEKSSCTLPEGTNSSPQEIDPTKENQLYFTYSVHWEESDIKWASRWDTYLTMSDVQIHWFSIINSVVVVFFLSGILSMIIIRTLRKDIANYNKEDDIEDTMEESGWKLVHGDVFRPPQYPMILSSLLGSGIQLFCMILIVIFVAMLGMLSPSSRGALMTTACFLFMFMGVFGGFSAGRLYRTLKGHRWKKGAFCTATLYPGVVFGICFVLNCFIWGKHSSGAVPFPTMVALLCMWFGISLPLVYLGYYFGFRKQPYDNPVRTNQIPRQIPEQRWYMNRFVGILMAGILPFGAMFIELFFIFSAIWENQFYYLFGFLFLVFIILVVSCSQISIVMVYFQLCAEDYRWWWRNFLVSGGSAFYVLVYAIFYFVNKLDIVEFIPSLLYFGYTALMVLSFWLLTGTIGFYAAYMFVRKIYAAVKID
UniProt A1L0T0: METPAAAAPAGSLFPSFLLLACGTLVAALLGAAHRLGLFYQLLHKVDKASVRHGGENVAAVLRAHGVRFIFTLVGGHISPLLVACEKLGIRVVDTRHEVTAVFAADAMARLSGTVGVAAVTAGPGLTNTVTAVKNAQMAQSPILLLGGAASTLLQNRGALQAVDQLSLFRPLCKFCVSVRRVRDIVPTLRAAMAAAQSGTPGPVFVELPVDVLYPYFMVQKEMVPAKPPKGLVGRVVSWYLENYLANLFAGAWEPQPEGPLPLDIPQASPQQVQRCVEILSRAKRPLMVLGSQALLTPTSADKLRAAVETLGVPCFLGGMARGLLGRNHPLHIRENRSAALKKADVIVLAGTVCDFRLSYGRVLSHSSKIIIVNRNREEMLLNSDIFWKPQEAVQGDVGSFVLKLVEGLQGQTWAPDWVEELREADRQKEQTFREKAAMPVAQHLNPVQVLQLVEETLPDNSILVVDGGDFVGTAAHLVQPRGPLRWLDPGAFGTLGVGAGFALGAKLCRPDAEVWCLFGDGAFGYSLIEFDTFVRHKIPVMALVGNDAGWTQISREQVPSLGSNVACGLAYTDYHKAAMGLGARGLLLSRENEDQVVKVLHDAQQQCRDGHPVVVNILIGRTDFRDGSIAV
UniProt Q53H96: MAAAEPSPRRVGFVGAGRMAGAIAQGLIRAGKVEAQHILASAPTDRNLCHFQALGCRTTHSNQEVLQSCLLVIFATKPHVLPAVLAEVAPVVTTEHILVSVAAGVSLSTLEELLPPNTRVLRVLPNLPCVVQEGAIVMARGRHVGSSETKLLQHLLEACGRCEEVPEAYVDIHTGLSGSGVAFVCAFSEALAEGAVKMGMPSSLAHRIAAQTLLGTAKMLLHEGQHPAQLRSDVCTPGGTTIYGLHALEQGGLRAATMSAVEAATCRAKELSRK
UniProt P49459, whole entry: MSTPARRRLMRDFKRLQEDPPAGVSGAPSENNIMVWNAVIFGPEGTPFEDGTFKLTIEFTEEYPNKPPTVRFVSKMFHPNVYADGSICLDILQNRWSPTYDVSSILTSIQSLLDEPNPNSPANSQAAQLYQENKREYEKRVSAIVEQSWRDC
UniProt O94953: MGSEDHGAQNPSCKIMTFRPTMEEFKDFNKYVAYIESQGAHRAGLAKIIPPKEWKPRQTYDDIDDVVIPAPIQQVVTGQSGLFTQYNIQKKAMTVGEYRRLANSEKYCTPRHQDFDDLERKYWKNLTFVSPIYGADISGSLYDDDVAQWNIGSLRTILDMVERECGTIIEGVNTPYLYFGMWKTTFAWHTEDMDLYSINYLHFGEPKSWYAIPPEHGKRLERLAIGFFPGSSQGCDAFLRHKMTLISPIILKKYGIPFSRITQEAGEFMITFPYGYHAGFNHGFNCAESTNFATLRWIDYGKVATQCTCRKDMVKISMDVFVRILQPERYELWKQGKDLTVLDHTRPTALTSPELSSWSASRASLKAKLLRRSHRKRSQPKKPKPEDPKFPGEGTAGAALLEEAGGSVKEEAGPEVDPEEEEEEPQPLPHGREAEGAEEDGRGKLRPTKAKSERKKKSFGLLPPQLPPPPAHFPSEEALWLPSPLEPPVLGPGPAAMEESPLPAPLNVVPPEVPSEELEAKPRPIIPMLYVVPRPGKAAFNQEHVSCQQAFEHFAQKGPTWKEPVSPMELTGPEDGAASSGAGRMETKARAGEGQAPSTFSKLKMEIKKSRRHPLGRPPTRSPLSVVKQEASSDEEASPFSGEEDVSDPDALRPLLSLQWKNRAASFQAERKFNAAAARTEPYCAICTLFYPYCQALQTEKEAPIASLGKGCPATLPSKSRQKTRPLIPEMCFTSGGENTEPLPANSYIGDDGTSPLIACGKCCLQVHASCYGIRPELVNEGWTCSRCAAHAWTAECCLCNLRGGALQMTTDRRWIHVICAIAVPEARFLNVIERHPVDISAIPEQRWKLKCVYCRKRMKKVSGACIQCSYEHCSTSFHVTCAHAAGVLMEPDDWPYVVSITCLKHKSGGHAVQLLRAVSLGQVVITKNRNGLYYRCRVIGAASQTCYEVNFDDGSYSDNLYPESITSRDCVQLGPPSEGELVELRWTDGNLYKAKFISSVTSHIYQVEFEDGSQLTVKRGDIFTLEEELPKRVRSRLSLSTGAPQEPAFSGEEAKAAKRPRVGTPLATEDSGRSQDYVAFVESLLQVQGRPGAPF
UniProt Q9UHJ6: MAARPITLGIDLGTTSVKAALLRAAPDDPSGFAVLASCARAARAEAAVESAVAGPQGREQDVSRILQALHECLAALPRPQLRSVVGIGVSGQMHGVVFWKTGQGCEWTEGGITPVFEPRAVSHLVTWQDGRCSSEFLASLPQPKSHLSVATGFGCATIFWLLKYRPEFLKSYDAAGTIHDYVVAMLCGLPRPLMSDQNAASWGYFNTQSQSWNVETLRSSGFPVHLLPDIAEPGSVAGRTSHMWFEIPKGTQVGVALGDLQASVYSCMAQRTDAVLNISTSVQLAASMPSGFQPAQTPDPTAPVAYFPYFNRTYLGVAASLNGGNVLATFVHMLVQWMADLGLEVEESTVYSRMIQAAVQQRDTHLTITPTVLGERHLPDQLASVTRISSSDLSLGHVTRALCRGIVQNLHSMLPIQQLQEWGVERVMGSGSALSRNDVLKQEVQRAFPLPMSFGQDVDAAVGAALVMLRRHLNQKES
UniProt Q14160: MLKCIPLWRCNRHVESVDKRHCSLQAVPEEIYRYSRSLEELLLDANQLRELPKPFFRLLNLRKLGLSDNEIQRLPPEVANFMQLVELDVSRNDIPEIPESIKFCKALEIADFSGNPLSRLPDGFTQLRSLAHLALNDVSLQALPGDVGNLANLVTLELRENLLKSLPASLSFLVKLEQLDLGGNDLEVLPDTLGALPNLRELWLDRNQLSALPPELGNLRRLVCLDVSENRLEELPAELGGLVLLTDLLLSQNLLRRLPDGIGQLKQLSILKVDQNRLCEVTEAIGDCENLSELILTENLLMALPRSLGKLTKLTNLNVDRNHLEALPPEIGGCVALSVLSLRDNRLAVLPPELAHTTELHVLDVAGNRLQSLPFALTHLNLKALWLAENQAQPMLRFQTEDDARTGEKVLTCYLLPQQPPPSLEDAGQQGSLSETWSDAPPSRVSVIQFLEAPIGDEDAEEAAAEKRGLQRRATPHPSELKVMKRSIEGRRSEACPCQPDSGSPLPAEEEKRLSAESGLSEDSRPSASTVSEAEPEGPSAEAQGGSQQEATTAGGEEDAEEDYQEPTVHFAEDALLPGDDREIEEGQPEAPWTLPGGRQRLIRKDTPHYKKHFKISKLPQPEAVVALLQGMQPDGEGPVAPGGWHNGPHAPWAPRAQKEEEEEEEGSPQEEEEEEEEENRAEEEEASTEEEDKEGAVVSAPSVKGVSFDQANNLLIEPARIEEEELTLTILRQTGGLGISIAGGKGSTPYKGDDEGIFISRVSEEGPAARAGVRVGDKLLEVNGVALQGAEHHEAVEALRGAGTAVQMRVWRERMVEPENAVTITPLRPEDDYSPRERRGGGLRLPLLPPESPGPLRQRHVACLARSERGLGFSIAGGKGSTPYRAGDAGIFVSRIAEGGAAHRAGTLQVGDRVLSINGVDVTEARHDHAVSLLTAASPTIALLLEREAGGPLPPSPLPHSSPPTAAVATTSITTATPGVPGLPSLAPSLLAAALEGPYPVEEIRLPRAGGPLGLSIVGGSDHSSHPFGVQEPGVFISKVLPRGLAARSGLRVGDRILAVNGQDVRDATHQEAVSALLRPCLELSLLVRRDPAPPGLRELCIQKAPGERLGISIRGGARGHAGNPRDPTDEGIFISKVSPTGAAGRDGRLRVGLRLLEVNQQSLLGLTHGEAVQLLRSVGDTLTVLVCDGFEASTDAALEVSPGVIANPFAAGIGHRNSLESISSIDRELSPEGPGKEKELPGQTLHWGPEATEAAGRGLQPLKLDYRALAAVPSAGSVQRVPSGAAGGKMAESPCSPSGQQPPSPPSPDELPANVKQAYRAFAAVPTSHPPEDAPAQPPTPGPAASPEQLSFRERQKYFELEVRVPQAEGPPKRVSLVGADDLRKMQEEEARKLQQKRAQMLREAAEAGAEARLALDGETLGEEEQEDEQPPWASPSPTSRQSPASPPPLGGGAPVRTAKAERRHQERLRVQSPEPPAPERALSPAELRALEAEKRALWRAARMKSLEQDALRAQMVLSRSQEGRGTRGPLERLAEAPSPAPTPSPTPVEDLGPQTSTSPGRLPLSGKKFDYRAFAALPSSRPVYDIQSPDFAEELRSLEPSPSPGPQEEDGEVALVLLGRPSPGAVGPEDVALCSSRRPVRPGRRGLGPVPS
UniProt Q02833: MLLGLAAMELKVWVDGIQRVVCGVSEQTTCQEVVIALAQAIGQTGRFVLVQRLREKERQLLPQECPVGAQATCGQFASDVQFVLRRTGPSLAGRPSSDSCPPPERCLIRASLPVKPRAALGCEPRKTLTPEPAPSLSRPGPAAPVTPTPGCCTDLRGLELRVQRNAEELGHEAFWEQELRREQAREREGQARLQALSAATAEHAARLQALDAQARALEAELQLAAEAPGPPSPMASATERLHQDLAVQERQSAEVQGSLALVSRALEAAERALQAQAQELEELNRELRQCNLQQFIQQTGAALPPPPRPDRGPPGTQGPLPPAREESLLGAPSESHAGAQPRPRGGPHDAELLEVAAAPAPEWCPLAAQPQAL
UniProt Q9NVV0: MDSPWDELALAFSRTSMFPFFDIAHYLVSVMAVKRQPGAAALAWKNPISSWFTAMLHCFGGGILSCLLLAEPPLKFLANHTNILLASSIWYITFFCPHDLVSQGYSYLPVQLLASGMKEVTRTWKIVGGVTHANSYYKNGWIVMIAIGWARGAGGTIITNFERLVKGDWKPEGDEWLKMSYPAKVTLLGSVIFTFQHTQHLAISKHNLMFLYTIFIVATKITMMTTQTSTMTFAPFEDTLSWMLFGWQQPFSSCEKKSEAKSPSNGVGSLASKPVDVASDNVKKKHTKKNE
UniProt O75608: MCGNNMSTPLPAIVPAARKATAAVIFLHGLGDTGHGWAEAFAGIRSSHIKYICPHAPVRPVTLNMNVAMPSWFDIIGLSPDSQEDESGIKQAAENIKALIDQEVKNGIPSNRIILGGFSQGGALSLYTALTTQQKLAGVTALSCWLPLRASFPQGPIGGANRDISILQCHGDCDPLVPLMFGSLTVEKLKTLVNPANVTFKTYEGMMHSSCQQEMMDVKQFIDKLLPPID
UniProt O95139, whole entry: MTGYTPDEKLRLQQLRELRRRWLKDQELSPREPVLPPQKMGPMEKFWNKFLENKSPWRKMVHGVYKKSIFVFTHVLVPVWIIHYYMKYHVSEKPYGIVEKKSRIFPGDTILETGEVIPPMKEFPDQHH

Compound: Nc1ncnc2c1ncn2[C@@H]1O[C@H](COP(=O)(O)OP(=O)(O)NP(=O)(O)O)[C@@H](O)[C@H]1O [adenylyl imidodiphosphate]
Experiment: NP40-soluble protein abundance relative to vehicle (solubility fold change) (ratio); higher = more soluble protein in presence of AMP-PNP
Outline: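 Eight concentrations, 0.1 to 10 mM, were tested on Jurkat crude lysate for 10 min at room temperature and then 3 min at 37 °C, in three independent experiments. The lysate was solubilised with 0.8% NP40 and benzonase, ultracentrifuged, and the supernatant TMT-labelled for LC-MS/MS. Each value is the fold change against the detergent-processed vehicle in its own replicate, from vsn-normalised intensities.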

Target	NP40-soluble protein abundance (concentration: 1mM)	NP40-soluble protein abundance (concentration: 2mM)	NP40-soluble protein abundance (concentration: 4mM)	NP40-soluble protein abundance (concentration: 6mM)	NP40-soluble protein abundance (concentration: 8mM)	NP40-soluble protein abundance (concentration: 10mM)
A0A087WYL7|G3V4A5 and related entries (UniProt O75586)	0.97 ± 0.036	1.01 ± 0.047	0.991 ± 0.036	0.997 ± 0.062	0.977 ± 0.083	0.994 ± 0.083
A0A087X176|Q6ZRP7 (UniProt Q6ZRP7)	0.98 ± 0.037	1.02 ± 0.048	1.01 ± 0.077	1.03 ± 0.063	1.04 ± 0.043	1.06 ± 0.072
A0A0G2JNT7|A0A0G2JQF4|Q7Z3B3 and related entries (UniProt Q7Z3B3)	0.999 ± 0.037	1.04 ± 0.078	1.02 ± 0.057	1.05 ± 0.048	1.02 ± 0.055	1.05 ± 0.083
A0A0A0MSS8|P42330 (UniProt P42330)	1.05 ± 0.033	1 ± 0.035	1.05 ± 0.068	1.05 ± 0.051	1.09 ± 0.024	1.07 ± 0.066
A0A0C4DFM1|Q92544 (UniProt Q92544)	0.99 ± 0.025	0.9394 ± 0.0089	0.998 ± 0.04	0.972 ± 0.047	1.02 ± 0.028	0.941 ± 0.061
A0A0C4DFY0|Q14242 and related entries (UniProt Q14242)	0.973 ± 0.046	0.985 ± 0.06	0.965 ± 0.045	0.958 ± 0.055	0.9452 ± 0.0083	0.923 ± 0.044
UniProt A1L0T0 and related entries	0.969 ± 0.026	0.9902 ± 0.0095	0.9938 ± 0.0089	0.995 ± 0.023	1 ± 0.035	1.03 ± 0.025
A0A0D9SGE8|Q8IWS0 and related entries (UniProt Q8IWS0)	1.019 ± 0.0064	1.05 ± 0.05	1.093 ± 0.01	1.13 ± 0.041	1.15 ± 0.065	1.18 ± 0.051
A0A0A0MQS1|Q53H96 (UniProt Q53H96)	1.01 ± 0.036	1.01 ± 0.016	1.06 ± 0.036	1.03 ± 0.029	1.02 ± 0.045	1.05 ± 0.052
A0A0D9SG71|P49459 (UniProt P49459)	1.03 ± 0.03	1.02 ± 0.019	0.988 ± 0.018	1.01 ± 0.027	1.02 ± 0.021	1.01 ± 0.02
A0A0A0MRU0|A0A0C4DH75|A0A0D9SFF8|B4DZ84 and related entries (UniProt Q14168)	0.966 ± 0.015	0.948 ± 0.021	0.979 ± 0.032	0.967 ± 0.011	0.991 ± 0.054	0.944 ± 0.018
A0A0C4DGA6|Q14527 (UniProt Q14527)	1.02 ± 0.024	0.994 ± 0.073	1.02 ± 0.036	1.02 ± 0.041	1.02 ± 0.04	1.01 ± 0.04
A0A0C4DGT4|Q643R3 (UniProt Q643R3)	0.998 ± 0.03	1 ± 0.05	1.03 ± 0.045	1.01 ± 0.035	1.01 ± 0.016	0.992 ± 0.029
A0A0J9YXJ0|E9PC62 and related entries (UniProt O95319)	0.995 ± 0.02	0.986 ± 0.015	0.997 ± 0.024	0.985 ± 0.029	0.962 ± 0.017	0.974 ± 0.053
A0A0C4DFL8|F5GX28 and related entries (UniProt O94953)	1.01 ± 0.023	1.02 ± 0.024	1.04 ± 0.024	1.01 ± 0.041	1.01 ± 0.042	1.01 ± 0.045
A0A0B4J2A0|Q9UHJ6 (UniProt Q9UHJ6)	1.022 ± 0.009	1.04 ± 0.078	1.05 ± 0.015	0.977 ± 0.023	0.984 ± 0.015	0.999 ± 0.025
A0A0D9SFB1|A0A0D9SFE4|A0A0U1RQP1|Q05193 and related entries (UniProt Q05193)	0.972 ± 0.025	0.921 ± 0.0025	0.975 ± 0.055	0.974 ± 0.067	1 ± 0.031	0.991 ± 0.072

Retrieved one by one from the entries so far, two records:
Target	NP40-soluble protein abundance (concentration: 1mM)	NP40-soluble protein abundance (concentration: 2mM)	NP40-soluble protein abundance (concentration: 4mM)	NP40-soluble protein abundance (concentration: 6mM)	NP40-soluble protein abundance (concentration: 8mM)	NP40-soluble protein abundance (concentration: 10mM)
A0A087WYL7|G3V4A5 and related entries (UniProt O75586)	0.97 ± 0.036	1.01 ± 0.047	0.991 ± 0.036	0.997 ± 0.062	0.977 ± 0.083	0.994 ± 0.083
A0A0A0MRU0|A0A0C4DH75|A0A0D9SFF8|B4DZ84 and related entries (UniProt Q14168)	0.966 ± 0.015	0.948 ± 0.021	0.979 ± 0.032	0.967 ± 0.011	0.991 ± 0.054	0.944 ± 0.018

Next part

Target	NP40-soluble protein abundance (concentration: 1mM)	NP40-soluble protein abundance (concentration: 2mM)	NP40-soluble protein abundance (concentration: 4mM)	NP40-soluble protein abundance (concentration: 6mM)	NP40-soluble protein abundance (concentration: 8mM)	NP40-soluble protein abundance (concentration: 10mM)
A0A087WWP4|Q96T37 and related entries (UniProt Q96T37)	1.04 ± 0.015	1.08 ± 0.019	1.13 ± 0.02	1.15 ± 0.021	1.17 ± 0.04	1.23 ± 0.033
A0A0C4DGH3|Q9Y6R0 (UniProt Q9Y6R0)	0.976 ± 0.069	0.973 ± 0.072	0.997 ± 0.015	0.992 ± 0.052	1.01 ± 0.0056	1.08 ± 0.04
A0A087WYY4|O75386 and related entries (UniProt O75386)	0.997 ± 0.01	0.985 ± 0.049	1.01 ± 0.026	1.03 ± 0.033	1.03 ± 0.027	1.04 ± 0.022
A0A0D9SEJ5|F5GY05 and related entries (UniProt Q96EK7)	0.974 ± 0.021	0.99 ± 0.046	0.993 ± 0.039	0.972 ± 0.052	0.953 ± 0.022	0.957 ± 0.037
A0A0G2JPP5|Q14160-3|A0A0G2JNZ2|Q14160 (UniProt Q14160)	1.01 ± 0.011	1.03 ± 0.05	1.03 ± 0.012	0.9924 ± 0.0092	0.971 ± 0.015	0.985 ± 0.018
A0A0A6YYG7|Q6IBW4 and related entries (UniProt Q6IBW4)	0.987 ± 0.047	1.03 ± 0.011	0.994 ± 0.038	1.01 ± 0.042	0.988 ± 0.029	1.02 ± 0.073
A0A0G2JLR5|A0A0G2JMW4|Q02833 and related entries (UniProt Q02833)	1.02 ± 0.032	1.03 ± 0.019	0.988 ± 0.025	0.996 ± 0.017	1.01 ± 0.017	1.01 ± 0.036
A0A0A0MRS4|Q9NVV0 (UniProt Q9NVV0)	1.06 ± 0.031	1.08 ± 0.056	1.07 ± 0.05	1.05 ± 0.025	1.046 ± 0.0015	1.08 ± 0.061
A0A087X1Z1|A0A0G2JPW5|A0A0G2JQX1|A0A0G2JSA7|Q96RT8 and related entries (UniProt Q96RT8)	0.946 ± 0.021	1 ± 0.057	0.951 ± 0.032	0.972 ± 0.029	0.962 ± 0.018	0.96 ± 0.016
A0A087WXV6|Q96G74 and related entries (UniProt Q96G74)	1.05 ± 0.037	1.06 ± 0.039	1.06 ± 0.034	1.02 ± 0.037	1.01 ± 0.047	1.04 ± 0.068
A0A0A0MRR1|Q5VV50 and related entries (UniProt Q5VV52)	1.01 ± 0.021	1.04 ± 0.035	1.05 ± 0.033	1.05 ± 0.02	1.06 ± 0.029	1.08 ± 0.046
A0A087X1K9|O75608 and related entries (UniProt O75608)	0.963 ± 0.046	0.956 ± 0.026	0.937 ± 0.021	0.995 ± 0.035	0.966 ± 0.034	0.935 ± 0.044
A0A0C4DG21|E7EP65 and related entries (UniProt Q9NYB9)	1.002 ± 0.0098	1.04 ± 0.069	0.966 ± 0.037	0.968 ± 0.028	0.939 ± 0.04	0.968 ± 0.011
A0A087WZ32|A0A087X038|A8K727 and related entries (UniProt Q9HB19)	1 ± 0.048	1.02 ± 0.073	0.997 ± 0.069	0.985 ± 0.061	0.992 ± 0.063	1.02 ± 0.081
A0A087X0V5|P29728 and related entries (UniProt P29728)	1.13 ± 0.0059	1.07 ± 0.091	1.26 ± 0.049	1.24 ± 0.086	1.358 ± 0.011	1.29 ± 0.02
A0A087WY96|P31641 (UniProt P31641)	1.01 ± 0.033	1.01 ± 0.044	0.985 ± 0.029	1 ± 0.021	1.03 ± 0.015	0.995 ± 0.026
A0A087WZX2|O95139 (UniProt O95139)	0.9832 ± 0.0059	1.07 ± 0.057	1.03 ± 0.025	0.998 ± 0.042	0.964 ± 0.037	0.98 ± 0.036
